This note sets out measurements from publication doi:10.1101/2020.09.09.289587.

Sequences of proteins named here, by UniProt entry; tags and fusion partners are left off.
UniProt O00571: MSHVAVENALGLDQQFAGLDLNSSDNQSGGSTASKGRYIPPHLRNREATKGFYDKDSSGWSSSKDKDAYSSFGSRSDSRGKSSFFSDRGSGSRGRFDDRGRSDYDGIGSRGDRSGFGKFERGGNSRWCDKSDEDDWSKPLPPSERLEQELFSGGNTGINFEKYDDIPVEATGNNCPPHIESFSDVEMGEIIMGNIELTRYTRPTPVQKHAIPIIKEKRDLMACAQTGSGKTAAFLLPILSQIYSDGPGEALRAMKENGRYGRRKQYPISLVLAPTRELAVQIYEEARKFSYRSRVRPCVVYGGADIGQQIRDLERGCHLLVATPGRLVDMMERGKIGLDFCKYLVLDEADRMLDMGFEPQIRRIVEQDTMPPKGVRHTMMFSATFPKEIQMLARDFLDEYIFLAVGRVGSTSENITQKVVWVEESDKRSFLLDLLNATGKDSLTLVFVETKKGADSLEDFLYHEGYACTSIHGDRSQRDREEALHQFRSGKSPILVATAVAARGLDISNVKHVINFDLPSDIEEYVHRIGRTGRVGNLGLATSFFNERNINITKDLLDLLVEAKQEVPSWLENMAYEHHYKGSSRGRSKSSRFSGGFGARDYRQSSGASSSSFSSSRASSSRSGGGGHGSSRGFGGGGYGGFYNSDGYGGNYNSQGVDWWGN

Like-named read-outs stand apart in the source and are kept apart here. These are yes or no findings as the source states them, for the method shown. Binding seen in cells or lysates may run through a third protein. Some binding calls cover weakened binding; strength is not graded here.

The target of test [1] is DEAD-box RNA helicase 3X (DDX3X) (human (endogenous in MCF7)) (UniProt O00571). As to the kind of experiment: co-IP.
For test [2] the target is unchanged. Briefly: co-IP. This is another data set of the same source.

B1: ADAR1-p150 (150 kDa isoform of ADAR1) (protein, UniProt P55265-1 1-1226)
chain: MNPRQGYSLSGYYTHPFQGYEHRQLRYQQPGPGSSPSSFLLKQIEFLKGQLPEAPVIGKQTPSLPPSLPGLRPRFPVLLASSTRGRQVDIRGVPRGVHLRSQGLQRGFQHPSPRGRSLPQRGVDCLSSHFQELSIYQDQEQRILKFLEELGEGKATTAHDLSGKLGTPKKEINRVLYSLAKKGKLQKEAGTPPLWKIAVSTQAWNQHSGVVRPDGHSQGAPNSDPSLEPEDRNSTSVSEDLLEPFIAVSAQAWNQHSGVVRPDSHSQGSPNSDPGLEPEDSNSTSALEDPLEFLDMAEIKEKICDYLFNVSDSSALNLAKNIGLTKARDINAVLIDMERQGDVYRQGTTPPIWHLTDKKRERMQIKRNTNSVPETAPAAIPETKRNAEFLTCNIPTSNASNNMVTTEKVENGQEPVIKLENRQEARPEPARLKPPVHYNGPSKAGYVDFENGQWATDDIPDDLNSIRAAPGEFRAIMEMPSFYSHGLPRCSPYKKLTECQLKNPISGLLEYAQFASQTCEFNMIEQSGPPHEPRFKFQVVINGREFPPAEAGSKKVAKQDAAMKAMTILLEEAKAKDSGKSEESSHYSTEKESEKTAESQTPTPSATSFFSGKSPVTTLLECMHKLGNSCEFRLLSKEGPAHEPKFQYCVAVGAQTFPSVSAPSKKVAKQMAAEEAMKALHGEATNSMASDNQPEGMISESLDNLESMMPNKVRKIGELVRYLNTNPVGGLLEYARSHGFAAEFKLVDQSGPPHEPKFVYQAKVGGRWFPAVCAHSKKQGKQEAADAALRVLIGENEKAERMGFTEVTPVTGASLRRTMLLLSRSPEAQPKTLPLTGSTFHDQIAMLSHRCFNTLTNSFQPSLLGRKILAAIIMKKDSEDMGVVVSLGTGNRCVKGDSLSLKGETVNDCHAEIISRRGFIRFLYSELMKYNSQTAKDSIFEPAKGGEKLQIKKTVSFHLYISTAPCGDGALFDKSCSDRAMESTESRHYPVFENPKQGKLRTKVENGEGTIPVESSDIVPTWDGIRLGERLRTMSCSDKILRWNVLGLQGALLTHFLQPIYLKSVTLGYLFSQGHLTRAICCRVTRDGSAFEDGLRHPFIVNHPKVGRVSIYDSKRQSGKTKETSVNWCLADGYDLEILDGTRGTVDGPRNELSRVSKKNIFLLFKKLCSFRYRRDLLRLSYGEAKKAARDYETAKNYFKKGLKDMGYGNWISKPQEEKNFYLCPV
Turning to B1, the binding entry in test [1] and in test [2] was “binds” in each case.

B2: ADAR1-p110 (110 kDa isoform of ADAR1) (protein, UniProt P55265-5 1-931)
chain: MAEIKEKICDYLFNVSDSSALNLAKNIGLTKARDINAVLIDMERQGDVYRQGTTPPIWHLTDKKRERMQIKRNTNSVPETAPAAIPETKRNAEFLTCNIPTSNASNNMVTTEKVENGQEPVIKLENRQEARPEPARLKPPVHYNGPSKAGYVDFENGQWATDDIPDDLNSIRAAPGEFRAIMEMPSFYSHGLPRCSPYKKLTECQLKNPISGLLEYAQFASQTCEFNMIEQSGPPHEPRFKFQVVINGREFPPAEAGSKKVAKQDAAMKAMTILLEEAKAKDSGKSEESSHYSTEKESEKTAESQTPTPSATSFFSGKSPVTTLLECMHKLGNSCEFRLLSKEGPAHEPKFQYCVAVGAQTFPSVSAPSKKVAKQMAAEEAMKALHGEATNSMASDNQPEGMISESLDNLESMMPNKVRKIGELVRYLNTNPVGGLLEYARSHGFAAEFKLVDQSGPPHEPKFVYQAKVGGRWFPAVCAHSKKQGKQEAADAALRVLIGENEKAERMGFTEVTPVTGASLRRTMLLLSRSPEAQPKTLPLTGSTFHDQIAMLSHRCFNTLTNSFQPSLLGRKILAAIIMKKDSEDMGVVVSLGTGNRCVKGDSLSLKGETVNDCHAEIISRRGFIRFLYSELMKYNSQTAKDSIFEPAKGGEKLQIKKTVSFHLYISTAPCGDGALFDKSCSDRAMESTESRHYPVFENPKQGKLRTKVENGEGTIPVESSDIVPTWDGIRLGERLRTMSCSDKILRWNVLGLQGALLTHFLQPIYLKSVTLGYLFSQGHLTRAICCRVTRDGSAFEDGLRHPFIVNHPKVGRVSIYDSKRQSGKTKETSVNWCLADGYDLEILDGTRGTVDGPRNELSRVSKKNIFLLFKKLCSFRYRRDLLRLSYGEAKKAARDYETAKNYFKKGLKDMGYGNWISKPQEEKNFYLCPV
Turning to B2, the binding result in test [2] was “binds”.
